Measurements as given in US3966793A (priority 1964, dated 1976).

Tests used:
[1] = Acute toxicity (M) LD 50; assay type: in vivo; details: in vivo, mouse
Description: (§1) A certain number of the compounds described in the present application have been studied with regard to their action on the central nervous system, as psycholeptics, myorrelaxants and tranquilizers. In addition, the acute toxicity has been determined for a number of these compounds.
(§2) In the series of tests briefly described hereafter, each compound was tested with the use of five or six scaled doses on batches of 10 to 20 animals for each dose; it was thereby possible to determine with sufficient exactitude by the method of probits the 50% effective dose (ED 50), that is to say, the dose for which half the animals are protected and react in a predetermined manner according to a particular action.

[2] = tested on: mouse; test: Acute toxicity (M) LD 50; assay type: in vivo; details: PO
Description: as §1, §2

**Q.** For `CN1C(=O)CN=C(c2ccccc2)c2cc(Cl)ccc21` [Diazepame, 7-Chloro-1-methyl-5-phenyl-2-oxo-2,3-dihydro-1H-benzo[f]-1,4-diazepine, reference compound], which LD50 ([1]; IP) is on record?
**A.** 220 mg/kg

**Q.** What about the LD50 ([1]; SC) of the same compound?
**A.** 800 mg/kg

**Q.** And the “Acute toxicity LD 50” value [2]?
**A.** 720 mg/kg
